Some of these results come from one statement about several compounds together. Where no end group is shown, it is not given here.
Tested on: prostate
Test: Intraprostatic infusion of S05A Peptides in rats: histological changes of cell death and prostate volume
Format: in vivo, Male Sprague-Dawley rats
Conditions: injected rats, on average, estimated
Description: The purpose of this example was to determine the effect of S05A Peptides on tissue at sites of injection.
Male Sprague-Dawley rats (300 gram weight range) were anesthetized with ether and given one of the above S05A Peptides by intraprostatic infusion, a control injection of normal saline or no injection after open surgical visualization of the prostate. The injections consisted of 300 μl of the S05A Peptide 1 mg/mL in PBS pH 7.4. (1.0 mg/kg) (n=36). Rats were painlessly sacrificed after 24 hours (n=12), 72 hours (n=12) and 7 days (n=12). Prostate glands were dissected, fixed in 10% buffered formalin for 24 hours, embedded in paraffin, sectioned, and stained with H & E. For each animal the entire prostate gland was embedded and sectioned. All stained sections were examined histologically and measured. For each prostate at least […] histological sections were examined, and for each histological section two cross-sectional diameters (D) at 90° from each other were measured (total of ≧8 measurements per prostate). The mean of the cross-sectional diameters (D) for each group was used to estimate volume according to V=4/3π(D/2)^3 and the mean volume calculated for each group. Histological changes were assessed on the following scale:
+++ Present, Moderate and Diffuse
++++ Present, Diffuse and Extensive

| Sequence | overall reduction in prostate volume compared to controls [%] |
| --- | --- |
| IDQQVLSRI [S05A-2] | > 40 |
| IDQQVLSRIKLEI [S05A-7] | > 40 |
